Assay results as given in PubChem BioAssay AID248 (DTP/NCI, 2004).
The list shows only some results of the screen, not a fair sample: it is rich in T/C values a quarter to a half above the control, in often repeated tests (any T/C) and in doses without a T/C. Further doses and runs are listed elsewhere. T/C: endpoint of the treated group in % of that of the vehicle group. Some doses have a count of surviving animals in place of a T/C: the source files T/C as zero there, which appears to mark a toxic dose or a test without result, not a measured value. Some survivor counts are full or nearly so, which does not show that the dose was tolerated: survival well below the control is almost never listed, so the zero probably covers shortened survival too. Counts of survivors are from the toxicity check (mostly the fifth day) where no day follows; animals may have died later. Schedule codes are those of the source, read here as Q, the interval in days (D) or hours (H), X, the number of doses. Some entries hold several experiments; their values stand side by side, smallest first. Where survival is the endpoint, the PubChem record calls one and a half times the control and up active, and a quarter to a half above the control has no call in these data; cut-offs in other NCI protocols can differ. Some T/C values carry the count of animals alive at the toxicity check (mostly the fifth day); without a count, all were alive then.

Tested on: L1210 leukemia ip in BDF1 mice, survival T/C
Test: NCI In Vivo Anticancer Drug Screen. Data for tumor model L1210 Leukemia (intraperitoneal) in B6D2F1 (BDF1) mice
Settings: T/C endpoint: mean survival time, higher T/C = longer survival
[1] = dose: 200.0 mg/kg/injection, schedule: Q01DX009 (ip), vehicle: Klucel (hydroxypropylcellulose) (HPC)
[2] = dose: 400.0 mg/kg/injection, schedule: Q01DX009 (ip), vehicle: Klucel (hydroxypropylcellulose) (HPC)
[3] = dose: 400.0 mg/kg/injection, schedule: Q04DX003 (ip), vehicle: Klucel (hydroxypropylcellulose) (HPC)
[4] = dose: 400.0 mg/kg/injection, schedule: Q04DX002 (ip), vehicle: saline with Tween-80
[5] = dose: 400.0 mg/kg/injection, schedule: Q01DX009 (ip), vehicle: saline with Tween-80
[6] = dose: 100.0 mg/kg/injection, schedule: Q04DX003 (ip), vehicle: saline
[7] = dose: 200.0 mg/kg/injection, schedule: Q04DX003 (ip), vehicle: saline
[8] = dose: 400.0 mg/kg/injection, schedule: Q04DX003 (ip), vehicle: saline
[9] = dose: 100.0 mg/kg/injection, schedule: Q01DX009 (ip), vehicle: saline with Tween-80
[10] = dose: 200.0 mg/kg/injection, schedule: Q01DX009 (ip), vehicle: saline with Tween-80
[11] = dose: 400.0 mg/kg/injection, schedule: Q01DX001 (ip), vehicle: other
[12] = dose: 400.0 mg/kg/injection, schedule: Q01DX001 (ip), vehicle: saline

## CCOc1ccccc1NC1=C(OC)C(=O)C(Nc2ccccc2OCC)=C(OC)C1=O
[1]
  survivor count: 6 of 6

## C#CC1(NC(c2cc(Cl)cc(Cl)c2O)P(=O)(c2ccccc2)c2ccccc2)CCCCC1 (stereo not given)
[2]
  survivor count: 6 of 6

## Cc1ccc(N2CCN(CCCN3CCN(c4ccc(Cl)cc4)CC3)CC2)cc1
dose: 200.0 mg/kg/injection, schedule: Q04DX003 (ip), vehicle: Klucel (hydroxypropylcellulose) (HPC)
  survivor count: 5 of 6
[3]
  survivor count: 5 of 6

## CC12C(=O)OC(=O)C1(C)C1CCC2O1 (stereo not given)
dose: 6.25 mg/kg/injection, schedule: Q04DX002 (ip), vehicle: saline with Tween-80
  survivor count: 2 of 3
dose: 12.5 mg/kg/injection, schedule: Q04DX002 (ip), vehicle: saline with Tween-80
  survivor count: 0 of 3
dose: 25.0 mg/kg/injection, schedule: Q04DX002 (ip), vehicle: saline with Tween-80
  survivor count: 0 of 3
dose: 100.0 mg/kg/injection, schedule: Q04DX002 (ip), vehicle: saline with Tween-80
  survivor count: 0 of 3
dose: 200.0 mg/kg/injection, schedule: Q04DX002 (ip), vehicle: saline with Tween-80
  survivor count: 0 of 3
[4]
  survivor count: 0 of 3

## CCOC(=O)C[n+]1ccc(C(=O)c2cc3ccccc3[nH]2)cc1
[5]
  survivor count: 1 of 6

## CS(=O)(=O)OCCN1CCC2(CC1)SSC1(CCN(CCOS(C)(=O)=O)CC1)S2
dose: 25.0 mg/kg/injection, schedule: Q01DX009 (ip), vehicle: saline
  survivor count: 0 of 6
dose: 50.0 mg/kg/injection, schedule: Q04DX003 (ip), vehicle: saline
  survivor count: 0 of 6
[6]
  survivor count: 0 of 6
[7]
  survivor count: 0 of 6 and 1 of 6
[8]
  survivor count: 0 of 6

## CN(C)[C@@H]1C(=O)C(C(=O)NCNc2nc3n[nH]nc3c(=O)[nH]2)=C(O)[C@@]2(O)C(=O)C3=C(O)c4c(O)cccc4[C@@](C)(O)[C@H]3C[C@@H]12
dose: 400.0 mg/kg/injection, schedule: Q01DX009 (ip), vehicle: acetone
  T/C: 129 % of control

## O=C(C[n+]1ccccc1)N/N=C/c1c(O)ccc2ccccc12
[9]
  survivor count: 2 of 6
[10]
  survivor count: 0 of 6
[5]
  survivor count: 0 of 6

## CCSC1OC(CO)C(O)C1Nc1ccc([N+](=O)[O-])cc1[N+](=O)[O-] (stereo not given)
dose: 200.0 mg/kg/injection, schedule: Q01DX001 (ip), vehicle: carboxymethylcellulose (CMC)
  survivor count: 0 of 4
dose: 400.0 mg/kg/injection, schedule: Q01DX001 (ip), vehicle: carboxymethylcellulose (CMC)
  survivor count: 0 of 4

## CCCCCCCCCCCc1nc(N)nc(NCCCC)n1
dose: 100.0 mg/kg/injection, schedule: Q04DX002 (ip), vehicle: Klucel (hydroxypropylcellulose) (HPC)
  survivor count: 3 of 3 and 4 of 4

## COc1ccc(NCNc2ccc(OC)cc2)cc1
[1]
  survivor count: 5 of 6
[3]
  survivor count: 0 of 6

## CS(=O)(=O)c1cc(N2CC2)ncn1
dose: 128.0 mg/kg/injection, schedule: Q01DX015 (ip), vehicle: carboxymethylcellulose (CMC)
  survivor count: 2 of 6

## CN(C(=O)OCc1ccccc1)C(Cc1ccccc1)C(=O)O (stereo not given)
[11]
  survivor count: 2 of 6

## CCC1(CC)OC2=C(CC(C#N)(C#N)C(C#N)(C#N)C2)O1
dose: 40.0 mg/kg/injection, schedule: Q01DX001 (ip), vehicle: saline
  survivor count: 2 of 6
dose: 75.0 mg/kg/injection, schedule: Q01DX001 (ip), vehicle: saline
  survivor count: 1 of 6
dose: 150.0 mg/kg/injection, schedule: Q01DX001 (ip), vehicle: saline
  survivor count: 0 of 6
dose: 300.0 mg/kg/injection, schedule: Q01DX001 (ip), vehicle: saline
  survivor count: 0 of 6

## CN(C)c1ccc(/C=C/c2ccnc3ccccc23)cc1
dose: 80.0 mg/kg/injection, schedule: Q01DX009 (ip), vehicle: saline
  survivor count: 3 of 6
[12]
  survivor count: 1 of 4

## CCNc1ccc([N+](=O)[O-])cn1
[2]
  survivor count: 5 of 6

## C#CC(=O)CCCCCCl
dose: 50.0 mg/kg/injection, schedule: Q04DX002 (sc), vehicle: olive oil, sesame oil, peanut oil
  survivor count: 0 of 3
dose: 100.0 mg/kg/injection, schedule: Q04DX002 (sc), vehicle: olive oil, sesame oil, peanut oil
  survivor count: 0 of 3
dose: 200.0 mg/kg/injection, schedule: Q04DX002 (sc), vehicle: olive oil, sesame oil, peanut oil
  survivor count: 0 of 3
dose: 400.0 mg/kg/injection, schedule: Q04DX002 (sc), vehicle: olive oil, sesame oil, peanut oil
  survivor count: 0 of 3

## CCN1C(=O)CC2CCCC1C2 (stereo not given)
dose: 200.0 mg/kg/injection, schedule: Q01DX001 (ip), vehicle: saline
  survivor count: 2 of 4
[12]
  survivor count: 1 of 4

## c1ccc(-c2cc(-c3ccccc3)[o+]c(-c3ccccc3)c2)cc1
dose: 25.0 mg/kg/injection, schedule: Q04DX003 (ip), vehicle: saline with Tween-80
  survivor count: 6 of 6
dose: 50.0 mg/kg/injection, schedule: Q04DX003 (ip), vehicle: saline with Tween-80
  survivor count: 6 of 6
dose: 100.0 mg/kg/injection, schedule: Q04DX003 (ip), vehicle: saline with Tween-80
  survivor count: 5 of 6

## CCN(CC)CCn1c2ccccc2c2cnccc21
[6]
  survivor count: 3 of 6
[7]
  survivor count: 1 of 6
[8]
  survivor count: 0 of 6

## Cc1cc(N(CCCl)CCCl)c(C)cc1NC(=O)c1ccccc1
dose: 6.0 mg/kg/injection, schedule: Q01DX009 (ip), vehicle: other
  T/C: 128 and 136 % of control
dose: 10.0 mg/kg/injection, schedule: Q01DX009 (ip), vehicle: other
  T/C: 139 % of control [5 of 6 alive]
dose: 18.0 mg/kg/injection, schedule: Q01DX009 (ip), vehicle: other
  T/C: 143 % of control
dose: 26.0 mg/kg/injection, schedule: Q01DX001 (ip), vehicle: other
  T/C: 127 % of control
dose: 40.0 mg/kg/injection, schedule: Q01DX001 (ip), vehicle: carboxymethylcellulose (CMC)
  T/C: 125 % of control
dose: 40.0 mg/kg/injection, schedule: Q01DX001 (ip), vehicle: other
  T/C: 125 and 131 % of control
dose: 60.0 mg/kg/injection, schedule: Q01DX001 (ip), vehicle: carboxymethylcellulose (CMC)
  T/C: 131 % of control
dose: 60.0 mg/kg/injection, schedule: Q01DX001 (ip), vehicle: other
  T/C: 130 and 147 % of control
dose: 80.0 mg/kg/injection, schedule: Q01DX001 (ip), vehicle: other
  T/C: 125 % of control
dose: 100.0 mg/kg/injection, schedule: Q01DX001 (ip), vehicle: other
  survivor count: 5 of 6
dose: 200.0 mg/kg/injection, schedule: Q01DX001 (ip), vehicle: other
  survivor count: 6 of 6
[11]
  survivor count: 0 of 6

## CCN(CC)C(=S)[S][Pb]([c]1ccccc1)([c]1ccccc1)[c]1ccccc1
dose: 400.0 mg/kg/injection, schedule: Q01DX001 (ip), vehicle: steroid suspending solution
  survivor count: 4 of 6

## O=NN(CCF)C(=O)NC1CCCCCCCCCCC1
dose: 93.0 mg/kg/injection, schedule: Q01DX001 (ip), vehicle: other
  T/C: 133 % of control
dose: 187.0 mg/kg/injection, schedule: Q01DX001 (ip), vehicle: other
  survivor count: 0 of 10
dose: 250.0 mg/kg/injection, schedule: Q01DX001 (ip), vehicle: other
  survivor count: 0 of 10
dose: 375.0 mg/kg/injection, schedule: Q01DX001 (ip), vehicle: other
  survivor count: 0 of 10
dose: 500.0 mg/kg/injection, schedule: Q01DX001 (ip), vehicle: other
  survivor count: 0 of 10
dose: 750.0 mg/kg/injection, schedule: Q01DX001 (ip), vehicle: other
  survivor count: 0 of 10
dose: 1000.0 mg/kg/injection, schedule: Q01DX001 (ip), vehicle: other
  survivor count: 0 of 10

## O=C(NC(=S)NNC(=S)NNc1ccccc1)c1ccccc1
dose: 50.0 mg/kg/injection, schedule: Q04DX002 (ip), vehicle: saline with Tween-80
  T/C: 132 % of control
[9]
  survivor count: 2 of 3
[4]
  survivor count: 1 of 3

## O=C(O)c1cc2ccccc2o1
[10]
  survivor count: 1 of 6
